Experimental data as given in patent publication US20080038321A1, “PROPHYLACTIC/THERAPEUTIC COMPOSITIONS FOR LIVER DISEASES” (Ajinomoto Co., Inc., priority 2004, published 2008).

Test system: TRB3
Test: Suppressive effects of amino acids on TRB3 expression in cultured hepatocytes (Fao cells, quantitative PCR)
Type: cell-based, rat
Conditions: other experiments
Experimental: Suppressive effects of twenty-two amino acids on TRB3 expression in rat hepatic cancer-derived Fao cells were examined.
The standard medium is a medium corresponding to the minus amino acid medium, except for further containing amino acids listed in Table 2.
RNAs were extracted from the cultured cells, the expression levels of TRB3 gene were determined through quantitative polymerase chain reaction (PCR), and the suppressive effects of amino acids on TRB3 expression were determined and compared with data of TRB3 expression induced upon amino acid starvation. The gene expression was corrected with reference to β-actin expression level. The correction was carried out in the same manner in the after-mentioned genes.
The data were corrected and expressed while taking the average of TRB3 mRNA levels after three-hour cultivation in the minus amino acid medium as 1.00.

SMILES: NCCC[C@H](N)C(=O)O [ornithine, reference compound]
- suppressive effect on TRB3 expression compared with L-aspartic acid (0.03 to 0.06 mM): less suppressive effect than that of L-aspartic acid
- suppressive effect on TRB3 expression compared with L-aspartic acid (0.3 to 1 mM): suppressive effect equivalent to that of L-aspartic acid
